Laboratory results as given in patent US9738902B2, “Modified PYR/PYL receptors activated by ligands” (priority 2013, dated 2017).

Test system: MDP1 transgenic plants expressing PYR1^MANDI
Assay: RNASeq genome-wide gene expression
Assay type: in vivo, Arabidopsis
Settings: 2 μM mandipropamid vs 50 μM ABA

## C#CCOc1ccc(CCNC(=O)C(OCC#C)c2ccc(Cl)cc2)cc1OC (stereo not shown) [Mandipropamid, mandipropamid]
  correlation r of mandipropamid response with ABA response (genome-wide): 0.90
